Test results from US20100021918A1, “METHOD FOR ASSAYING ACTION OF ANTITUMOR AGENT USING SPLICING DEFECTS AS INDEX” (Eisai R&D Management Co., Ltd., priority 2007, published 2010).
Further values from the same series stand in other lists.

Test system: peripheral blood mononuclear cells (PBMC)
Assay: Microarray analysis (3), dose-dependent intron expression in PBMC at 3, 10, 30 nM, Table 5
Format: cell-based, human
Experimental: PBMC was suspended in RPMI1640 medium (containing 10% FBS, penicillin, and streptomycin) to 5×10^6 cells/ml and 1 ml of the suspension was plated per well of a 24-well plate. Immediately, 111 μl of 10 times-concentrated (8E,12E,14E)-7-((4-cycloheptylpiperazin-1-yl)carbonyl)oxy-3,6,16,21-tetrahydroxy-6,10,12,16,20-pentamethyl-18,19-epoxytricosa-8,12,14-trien-11-olide was added to the well (six wells per each concentration tested). The cells were then cultured in an incubator with 5% carbon dioxide gas at 37° C. Three hours later, the supernatant was collected and centrifuged at 1500 rpm for five minutes. TRI reagent (SIGMA) (1 ml) was added to each well of the plate from which the supernatant was removed to harvest the cells, which was added to the centrifuged pellet to dissolve. RNA was purified in accordance with the protocol of TRI reagent. RNA was further purified using RNeasy (QIAGEN) and, in accordance with the protocol, DNaseI was added to the samples during the procedure. Absorbance at 260 nm was measured to quantify an amount of RNA.
Ribosomal RNA was removed from 1 μg of each total RNA of control cells (n=3) and cells with the treatment (n=3) using RiboMinus Human/Mouse Transcriptome Isolation Kit (Invitrogen). Single stranded cDNA synthesis, double stranded cDNA synthesis, cRNA synthesis, second single stranded cDNA synthesis, cDNA fragmentation, and cDNA labeling in order were carried out for total RNA from which ribosomal RNA was removed, using GeneChip Whole Transcript Sense Target Labeling and Control Reagents (Affymetrix) to make a cDNA probe. Subsequently, the cDNA probe was used for hybridization with Human Exon 1.0 ST Array (Affymetrix). The array was washed and stained, and luminescence intensity was measured by a scanner.
The expression level of the probe set and the gene was quantified by using Expression Console Ver. 1.0 (Affymetrix) with Summarization Method and Normalization Method being set to “Median polish as used in RMA” and “None”, respectively. The expression level of the probe was normalized with that of the gene.
Probe sets showing that the normalized change in the level expression of the probe set in the group with the treatment at 30 nM was more than 5 times; the expression level of the probe set and the gene in the group with the treatment at 30 nM was more than 100; and probe set annotation was “extended, full, free”, were picked out. Regression analysis was performed with the probe sets extracted for the control group, the group with the treatment at 3 nM, the group with the treatment at 10 nM, and the group with the treatment at 30 nM to determine a p and q value for the slope of regression formula. A gene containing the probe sets with the q value of less than 5% was determined as a candidate gene with increased expression level of the intron regions (Table 5).
In Table 5, for the gene evaluated, gene name (Gene Name), abbreviated name (Gene Symbol), accession number (Accession), alias name (Synonym), transcription cluster number in Human Exon 1.0 ST Array (Human Exon 1.0 ST Array Transcription Cluster ID), chromosome number (Chromosome), type of strand (Strand), start region (Start), stop region (Stop), and change in expression level per 1 nM (Fold Change/nM) were respectively shown.

CCC(O)C(C)C1OC1CC(C)(O)/C=C/C=C(\C)C1OC(=O)CC(O)CCC(C)(O)C(OC(=O)N2CCN(C3CCCCCC3)CC2)/C=C/C1C (centres unmarked) [E7107, (8E,12E,14E)-7-((4-cycloheptylpiperazin-1-yl)carbonyl)oxy-3,6,16,21-tetrahydroxy-6,10,12,16,20-pentamethyl-18,19-epoxytricosa-8,12,14-trien-11-olide]
Fold Change/nM (introns of gene NET1, regression over control, 3, 10, 30 nM): 1.07 nM⁻¹ | Fold Change/nM (introns of gene NFKBIE, regression over control, 3, 10, 30 nM): 1.04 nM⁻¹ | Fold Change/nM (introns of gene NIN, regression over control, 3, 10, 30 nM): 1.04 nM⁻¹ | Fold Change/nM (introns of gene NINJ1, regression over control, 3, 10, 30 nM): 1.04 nM⁻¹ | Fold Change/nM (introns of gene NOLC1, regression over control, 3, 10, 30 nM): 1.05 nM⁻¹ | Fold Change/nM (introns of gene NONO, regression over control, 3, 10, 30 nM): 1.07 nM⁻¹ | Fold Change/nM (introns of gene NOTCH2 // NBPF14, regression over control, 3, 10, 30 nM): 1.06 nM⁻¹ | Fold Change/nM (introns of gene NP, regression over control, 3, 10, 30 nM): 1.06 nM⁻¹ | Fold Change/nM (introns of gene NRIP1, regression over control, 3, 10, 30 nM): 1.04 nM⁻¹ | Fold Change/nM (introns of gene NUP98, regression over control, 3, 10, 30 nM): 1.07 nM⁻¹ | Fold Change/nM (introns of gene NUPL1, regression over control, 3, 10, 30 nM): 1.04 nM⁻¹ | Fold Change/nM (introns of gene NXF1, regression over control, 3, 10, 30 nM): 1.07 nM⁻¹ | Fold Change/nM (introns of gene PDCD4, regression over control, 3, 10, 30 nM): 1.06 nM⁻¹ | Fold Change/nM (introns of gene PDE4B, regression over control, 3, 10, 30 nM): 1.06 nM⁻¹ | Fold Change/nM (introns of gene PDXK // C21orf124, regression over control, 3, 10, 30 nM): 1.07 nM⁻¹ | Fold Change/nM (introns of gene PELI1, regression over control, 3, 10, 30 nM): 1.08 nM⁻¹ | Fold Change/nM (introns of gene PHF12, regression over control, 3, 10, 30 nM): 1.06 nM⁻¹ | Fold Change/nM (introns of gene PIK3AP1, regression over control, 3, 10, 30 nM): 1.06 nM⁻¹ | Fold Change/nM (introns of gene PITPNA // MYO1C, regression over control, 3, 10, 30 nM): 1.05 nM⁻¹ | Fold Change/nM (introns of gene PLAGL2, regression over control, 3, 10, 30 nM): 1.04 nM⁻¹ | Fold Change/nM (introns of gene PLAUR, regression over control, 3, 10, 30 nM): 1.06 nM⁻¹ | Fold Change/nM (introns of gene PLRG1, regression over control, 3, 10, 30 nM): 1.04 nM⁻¹ | Fold Change/nM (introns of gene POGZ, regression over control, 3, 10, 30 nM): 1.04 nM⁻¹ | Fold Change/nM (introns of gene POLR1C, regression over control, 3, 10, 30 nM): 1.04 nM⁻¹ | Fold Change/nM (introns of gene POLR2B, regression over control, 3, 10, 30 nM): 1.04 nM⁻¹ | Fold Change/nM (introns of gene PPP1CC, regression over control, 3, 10, 30 nM): 1.04 nM⁻¹ | Fold Change/nM (introns of gene PPP1R10, regression over control, 3, 10, 30 nM): 1.07 nM⁻¹ | Fold Change/nM (introns of gene PPP1R12A, regression over control, 3, 10, 30 nM): 1.04 nM⁻¹ | Fold Change/nM (introns of gene PPP2CA, regression over control, 3, 10, 30 nM): 1.07 nM⁻¹ | Fold Change/nM (introns of gene PRPF3 // KIAA0460, regression over control, 3, 10, 30 nM): 1.04 nM⁻¹ | Fold Change/nM (introns of gene PRPF8, regression over control, 3, 10, 30 nM): 1.06 nM⁻¹ | Fold Change/nM (introns of gene PRPF40A, regression over control, 3, 10, 30 nM): 1.08 nM⁻¹ | Fold Change/nM (introns of gene PSCD1, regression over control, 3, 10, 30 nM): 1.08 nM⁻¹ | Fold Change/nM (introns of gene PSMA5, regression over control, 3, 10, 30 nM): 1.06 nM⁻¹ | Fold Change/nM (introns of gene PSMD2, regression over control, 3, 10, 30 nM): 1.05 nM⁻¹ | Fold Change/nM (introns of gene PSMD7, regression over control, 3, 10, 30 nM): 1.05 nM⁻¹ | Fold Change/nM (introns of gene PSTPIP2, regression over control, 3, 10, 30 nM): 1.06 nM⁻¹ | Fold Change/nM (introns of gene PTBP1, regression over control, 3, 10, 30 nM): 1.04 nM⁻¹ | Fold Change/nM (introns of gene PUM2, regression over control, 3, 10, 30 nM): 1.06 nM⁻¹ | Fold Change/nM (introns of gene PXK, regression over control, 3, 10, 30 nM): 1.04 nM⁻¹ | Fold Change/nM (introns of gene RAB5A, regression over control, 3, 10, 30 nM): 1.07 nM⁻¹ | Fold Change/nM (introns of gene RAB6IP1, regression over control, 3, 10, 30 nM): 1.07 nM⁻¹ | Fold Change/nM (introns of gene RAB8B, regression over control, 3, 10, 30 nM): 1.06 nM⁻¹ | Fold Change/nM (introns of gene RAB14, regression over control, 3, 10, 30 nM): 1.04 nM⁻¹ | Fold Change/nM (introns of gene RAD50, regression over control, 3, 10, 30 nM): 1.06 nM⁻¹ | Fold Change/nM (introns of gene RAE1, regression over control, 3, 10, 30 nM): 1.05 nM⁻¹ | Fold Change/nM (introns of gene REL, regression over control, 3, 10, 30 nM): 1.06 nM⁻¹ | Fold Change/nM (introns of gene RELA, regression over control, 3, 10, 30 nM): 1.04 nM⁻¹ | Fold Change/nM (introns of gene RNF10, regression over control, 3, 10, 30 nM): 1.06 nM⁻¹ | Fold Change/nM (introns of gene RNF40, regression over control, 3, 10, 30 nM): 1.04 nM⁻¹ | Fold Change/nM (introns of gene RP2, regression over control, 3, 10, 30 nM): 1.07 nM⁻¹ | Fold Change/nM (introns of gene RSPRY1, regression over control, 3, 10, 30 nM): 1.04 nM⁻¹ | Fold Change/nM (introns of gene SAPS3, regression over control, 3, 10, 30 nM): 1.04 nM⁻¹ | Fold Change/nM (introns of gene SART3, regression over control, 3, 10, 30 nM): 1.04 nM⁻¹ | Fold Change/nM (introns of gene SDCBP, regression over control, 3, 10, 30 nM): 1.04 nM⁻¹ | Fold Change/nM (introns of gene SEC23IP, regression over control, 3, 10, 30 nM): 1.04 nM⁻¹
